{"source": "patent EP1757701A1", "note": "Results are given in words; binding and its absence hold for the method and conditions named. Some results given as binding are weak or reduced against the parent protein; the word gives no strength.", "data": [{"biological_target": "IgG-Fc [IgG part: P01857]", "assay": "phage clone, IgG-Fc", "values": [{"binder": "DLADCSWHLGELVWCSRVEG", "binding": "binds"}, {"binder": "DLADCSWHLGELVWCVGLDE", "binding": "binds"}, {"binder": "WVEDCSWHLGELVWCVGLDF", "binding": "binds"}]}, {"biological_target": "IgG-Fc [IgG part: P01857]", "assay": "phage clone, ALA scan, IgG-Fc", "values": [{"binder": "AEADCAWHLGELVWCTKVEE", "binding": "binds"}, {"binder": "WAADCAWHLGELVWCTKVEE", "binding": "binds"}, {"binder": "WEPDCAWHLGELVWCTKVEE", "binding": "binds"}, {"binder": "WEAACAWHLGELVWCTKVEE", "binding": "binds"}, {"binder": "WEAACSWHLGELVWCTKVEE", "binding": "binds"}, {"binder": "WEADCAAHLGELVWCTKVEE", "binding": "binds"}, {"binder": "WEADCAWALGELVWCTKVEE", "binding": "binds"}, {"binder": "WEADCAWHAGELVWCTKVEE", "binding": "binds"}, {"binder": "WEADCAWHLAELVWCTKVEE", "binding": "binds"}, {"binder": "WEADCAWHLGALVWCTKVEE", "binding": "binds"}, {"binder": "WEADCAWHLGEAVWCTKVEE", "binding": "binds"}, {"binder": "WEADCAWHLGELAWCTKVEE", "binding": "binds"}, {"binder": "WEADCAWHLGELVACTKVEE", "binding": "binds"}, {"binder": "WEADCAWHLGELVWCAKVEE", "binding": "binds"}, {"binder": "WEADCAWHLGELVWCTAVEE", "binding": "binds"}, {"binder": "WEADCAWHLGELVWCTKAEE", "binding": "binds"}, {"binder": "WEADCAWHLGELVWCTKVAE", "binding": "binds"}]}, {"biological_target": "IgG-Fc [IgG part: P01857]", "assay": "phage clone selected on IgG-Fc", "values": [{"binder": "KEASCSYWLGELVWCDWMNG", "binding": "binds"}, {"binder": "KEASCSYWLGELVWCDDTPV", "binding": "binds"}, {"binder": "KEASCSYWLGELVWCDDYGE", "binding": "binds"}]}]}
